Source: patent US20060242739A1, “Plant nucleotide-sugar pyrophosphatase/phosphodiesterase (nppase), method of obtaining same and use of same in the production of assay devices and in the production of transgenic plants” (Universidad Publica De Navarra, priority 2002, published 2006)

Target: T1, NPPase from barley leaves (Hordeum vulgare, UniProt Q687E1)
T1 sequence (Q687E1 19-368): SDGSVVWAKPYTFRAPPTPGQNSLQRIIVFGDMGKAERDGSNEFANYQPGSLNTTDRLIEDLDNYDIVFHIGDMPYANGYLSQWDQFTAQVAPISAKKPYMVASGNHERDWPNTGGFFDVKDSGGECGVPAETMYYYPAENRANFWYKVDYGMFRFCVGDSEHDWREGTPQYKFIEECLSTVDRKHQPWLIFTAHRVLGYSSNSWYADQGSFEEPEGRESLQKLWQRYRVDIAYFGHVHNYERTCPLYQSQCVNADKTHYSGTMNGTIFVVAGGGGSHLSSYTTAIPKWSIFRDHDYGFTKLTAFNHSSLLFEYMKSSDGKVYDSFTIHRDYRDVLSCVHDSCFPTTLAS
Experiment: Enzymatic test of soluble NPPase from barley leaves: kinetic parameters, substrate specificity, effectors

Nc1ncnc2c1ncn2[C@@H]1O[C@H](COP(=O)(O)OS(=O)(=O)O)[C@@H](O)[C@H]1O [APS, adenosine 5′-phosphosulphate]
Vmax (Vmax in % in relation to ADPG, NPPase from barley leaves): 160% | hydrolysis by NPPase (substrate recognition) (qualitative): catalyses the hydrolysis
